About 310 (0.13%) of roughly 230,000 compounds were called active. The shares of active, inactive and inconclusive entries below differ from those in the screen. Calls follow the shape of the dose curve; as a rule, active = well fitted activation curve with a large enough effect; inconclusive = small, poorly fitted or top-dose-only effect; inactive = no such curve, though single readings can be large or run the other way. A potency beside an inconclusive call is a rough fit, not a confirmed value. Residues, ends and D or L forms follow the SMILES beside them. *: point of attachment. Boc = CC(C)(C)OC(=O)*; OtBu = CC(C)(C)O*
Test: qHTS Multiplex Assay to Identify Dual Action Probes in a Cell Model of Huntington: Cytoprotection (ATP); also: nearly all actives have a fitted effect of over 45% in size;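 as to cytoprotection (ATP increase): toxic huntingtin expression switched on by the ecdysone agonist tebufenozide; % of control where 0% means no effect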
Conditions: PC12 HTT-Q103 induced, ATP luminescence, 40 h; cytoprotection (ATP increase): at 56.4 µM (top of the series) unless noted
Procedure, shortened: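 Cells were plated at 1500 per well in phenol red-free DMEM with 5% equine and 5% calf serum. Tebufenozide (100 nM final) and compounds were added, then ATPlite reagent, and luminescence was read.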
Potency is read from the fitted curve at half-maximal effect.

SMILES | Potency | cytoprotection (ATP increase)
COC1=CC(=O)C[C@@H](C)[C@]12Oc1c(Cl)c(OC)cc(OC)c1C2=O | inconclusive: 794 nM [activator, full curve, poor fit] | 
Cc1ccc(CSC2=Nc3ccccc3C3=NC(=O)CN23)cc1 |  | inactive: -68%
COC(=O)C(Cc1ccc(O)cc1)NC(=O)C(CC(=O)OC(C)(C)C)NC(=O)OC(C)(C)C (configuration not stated) (Boc-Asp(OtBu)-Tyr-OMe; configuration not given here) | inconclusive: 1260 nM [activator, single point] | 
CC(CCc1ccccc1)NC(=S)NC1CCCCC1 (configuration not stated) | inconclusive: 5620 nM [activator, single point] | 
Cc1cc(C)cc(NC(=S)N(CCN(C)C)C(C)c2cccnc2)c1 (configuration not stated) | inconclusive: 5620 nM [activator, single point] | 
COC(=O)C1=C(C(=O)OC)[C@@H]2Nc3ccccc3[C@@]23C[C@@H](C(=O)OC)N(C(=O)c2cccs2)C3=N1 | inconclusive: 3550 nM [activator, single point] | 
Cc1ccc(SCCNC(=O)/C=C/c2cccc([N+](=O)[O-])c2)cc1 | inconclusive: 1260 nM [activator, single point] | 
COC(=O)C(C)Sc1ccc2nnc(-c3ccccc3)n2n1 (configuration not stated) | inconclusive: 708 nM [activator, single point] | 
C(=C\c1ccccc1)/C=N/N1CCN(c2ccccn2)CC1 | inconclusive: 4470 nM [activator, single point] | 
Fc1ccc(CNn2cnnc2SCc2ccc(F)cc2)cc1 | inconclusive: 2000 nM [activator, partial curve] | 
CCOC(=O)c1sc2ncn(/N=C/c3cccnc3)c(=O)c2c1C |  | inactive: 8.23%
O=C(NC(=S)Nc1ccc(S(=O)(=O)Nc2nccs2)cc1)c1ccc(F)cc1 |  | inactive: -7.54% [at 10 µM]
CCC(=O)Nc1ccc(S(=O)(=O)NCCc2ccccc2)cc1 | inconclusive: 3550 nM [activator, single point] | 
OCC(O)CN1CCN(c2ccccc2)CC1 (configuration not stated) | inconclusive: 35500 nM [activator, single point] | 
S=C(Nc1ccccc1)Nc1nc2ccccc2n1CCOc1ccc(Br)cc1 | inconclusive: 5620 nM [activator, single point] | 
Cc1sc2ncnc(NCCc3ccc(S(N)(=O)=O)cc3)c2c1C |  | inactive: -10.8%
COc1ccc(N2CCN(C(=O)c3cc(=O)[nH]c4ccccc34)CC2)cc1 | inconclusive: 282 nM [activator, full curve, poor fit] | 
COc1cc(C(=O)NCC(=O)OCCN2C(=O)c3ccccc3C2=O)cc(OC)c1OC | inconclusive: 316 nM [activator, partial curve] | 
CCSc1nc2ccccc2n1C(=O)c1ccc(S(=O)(=O)N2CCCCCC2)cc1 |  | inactive: -29.4% [at 10 µM]
CCCN1CNC(=S)N(c2cccc(C)c2C)C1 | inconclusive: 5620 nM [activator, single point] | 
O=C1CN(C(=O)COC(=O)CCSc2ccccc2Cl)c2ccccc2N1 |  | inactive: 9.13%

SMILES | Potency | cytoprotection (ATP increase)
CCN1CCN(C(=O)/C=C/c2ccc([N+](=O)[O-])cc2)CC1 | inconclusive: 891 nM [activator, single point] | 
Cc1ccc(-n2c(-c3ccccc3)cc(=O)nc2C)cc1 | inconclusive: 5620 nM [activator, single point] | 
CC(C)N1CC(C(=O)Nc2ccccc2)CC1=O (configuration not stated) |  | inactive: 13.2% [at 1.9 µM]
CCOC(=O)c1cnc2c(c(C)nn2CC)c1NC1CC1 |  | inactive: -38.9%
C=CCNC(=O)NC(=O)COC(=O)/C=C/c1cccc([N+](=O)[O-])c1 | inconclusive: 6.3 nM [activator, full curve, poor fit] | 
CC1(C)CNC(=O)c2sc(NC(=O)c3ccccc3Cl)nc2C1 |  | inactive: 18.2% [at 10 µM]
CC(C)CO/N=C1/C[C@@H](O)[C@@H](O)[C@@H]2[C@H]3C(=O)N(c4ccc(F)cc4F)C(=O)[C@@H]3CC[C@H]12 | inconclusive: 1.4 nM [activator, full curve, poor fit] | 
Cc1cc(C(=O)CN2C(=O)CN(C)C2=O)c(C)n1-c1cccc(S(=O)(=O)N2CCOCC2)c1 | inconclusive: 3160 nM [activator, single point] | 
FC(F)(F)c1cccc(-c2nn[nH]n2)c1 |  | inactive: -24.5%
N#CC1=C(S)N=C(N)C(c2nc(-c3ccccc3)cs2)C12CCCC2 (configuration not stated) | inconclusive: 35500 nM [activator, single point] | 
O=S(=O)(c1ccccc1)N1CCC[C@@]2(CCN(c3ncccn3)C2)C1 | inconclusive: 7940 nM [activator, partial curve] | 
Cc1ccc(NC(=O)CO/N=C/c2ccc(N(C)C)cc2)cc1 | inconclusive: 1260 nM [activator, single point] | 
Cc1cc(NC(=O)C2Oc3ccccc3OC2C)no1 (configuration not stated) | inconclusive: 3550 nM [activator, single point] | 
COc1cccc(NS(=O)(=O)CC23CCC(CC2=O)C3(C)C)c1 (configuration not stated) | inconclusive: 1120 nM [activator, single point] | 
NC(=O)c1ccc(-n2nc(C(F)(F)F)c3c2CCCC3)cc1 | inconclusive: 3160 nM [activator, single point] | 
COc1ccc(C(=O)NNC(=O)C(=O)NC(C)c2ccccc2)cc1OC (configuration not stated) | inconclusive: 1580 nM [activator, single point] | 
Fc1ccc(/C=N/Nc2nc3ccccc3[nH]2)cc1F |  | inactive: -67.2%
C[C@@](Cc1ccccc1)(NC(=O)CN)c1ccccc1 | inconclusive: 1260 nM [activator, single point] | 
Cn1c(-c2ccc(Br)cc2)cnc1NCc1cccnc1 |  | inactive: 20.1%
CCn1c(=O)cc(SCC(=O)NCCCN2CCN(c3ccc(F)cc3)CC2)c2ccccc21 | inconclusive: 1120 nM [activator, single point] | 
CC(=O)OC[C@@]1(O)C[C@@]23CC[C@@H]4c5ccoc5CC[C@@]4(C)[C@@H]2CCC1C3 | inconclusive: 2000 nM [activator, partial curve] | 

Nothing new here: two of the compounds above.
SMILES | Potency | cytoprotection (ATP increase)
C[C@@](Cc1ccccc1)(NC(=O)CN)c1ccccc1 | inconclusive: 1260 nM [activator, single point] | 
Cn1c(-c2ccc(Br)cc2)cnc1NCc1cccnc1 |  | inactive: 20.1%

Reference: PubChem BioAssay AID1471 (National Center for Advancing Translational Sciences (NCATS), 2008)
